The results in this text go back to paper PMC13075716.

Chains of the proteins cited; added tags and fusions are not shown.
UniProt O95721: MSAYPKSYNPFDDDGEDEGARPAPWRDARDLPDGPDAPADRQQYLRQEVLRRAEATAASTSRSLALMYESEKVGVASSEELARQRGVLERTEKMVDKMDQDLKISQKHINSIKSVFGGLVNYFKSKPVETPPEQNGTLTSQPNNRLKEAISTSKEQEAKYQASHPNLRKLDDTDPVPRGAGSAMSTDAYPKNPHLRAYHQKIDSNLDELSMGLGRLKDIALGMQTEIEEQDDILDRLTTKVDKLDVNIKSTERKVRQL
UniProt Q01220: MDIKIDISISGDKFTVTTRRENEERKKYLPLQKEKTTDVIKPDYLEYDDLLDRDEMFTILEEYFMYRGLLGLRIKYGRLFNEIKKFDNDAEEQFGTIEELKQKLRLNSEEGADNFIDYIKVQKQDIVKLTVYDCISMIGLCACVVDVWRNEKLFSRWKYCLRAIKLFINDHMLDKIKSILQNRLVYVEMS

No constants are given. Whether binding was seen depends on the method and setting. In cells and extracts the contact can be indirect. Some binding calls cover weakened binding; strength is not graded here.

This assay addresses Myc-tagged human SNAP29 (synaptosome associated protein 29), transfected (human) (UniProt O95721). In words: co-IP.

As to “Flag-tagged A52 of vaccinia virus Western Reserve (WR178), transfected (from UniProt Q01220 1-190)”, the binding result was “binds”.
